Literature values in US12590125B2, “Peptide inhibitors for the inhibition of HIV capsid” (THE CURATORS OF THE UNIVERSITY OF MISSOURI, priority 2019, dated 2026).
Some entries share one result that the patent states for a list of compounds.

Details: single subcutaneous injection, rats and dogs; cited from earlier work

SMILES: CC(C)(C#Cc1ccc(-c2ccc(Cl)c3c(NS(C)(=O)=O)nn(CC(F)(F)F)c23)c([C@H](Cc2cc(F)cc(F)c2)NC(=O)Cn2nc(C(F)(F)F)c3c2C(F)(F)[C@@H]2C[C@H]32)n1)S(C)(=O)=O [GS-6207]
- time plasma concentrations are maintained above plasma-binding-adjusted effective concentration for 95% HIV-1 replication inhibition: > 12 weeks
